# From the supplement of paper PMC3334620
# Whole data set: some 33,000 sequences, median “E-score (-0.5 to 0.5)” near -0.0059, cut for the highest 2% near 0.26. This is one part of the list.
# Biological target: T1, Cin5 (UniProt P40917)
# T1 sequence: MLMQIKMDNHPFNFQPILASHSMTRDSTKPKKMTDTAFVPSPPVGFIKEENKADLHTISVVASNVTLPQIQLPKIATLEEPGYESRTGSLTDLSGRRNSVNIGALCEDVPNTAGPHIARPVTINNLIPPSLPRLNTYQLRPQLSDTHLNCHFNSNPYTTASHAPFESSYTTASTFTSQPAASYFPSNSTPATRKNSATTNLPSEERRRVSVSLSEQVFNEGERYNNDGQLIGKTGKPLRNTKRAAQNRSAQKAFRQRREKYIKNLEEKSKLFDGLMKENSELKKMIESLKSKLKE
# Test: PBM E-score (8-mer binding enrichment) (E-score (-0.5 to 0.5)); higher = stronger / more preferred TF binding
# Details: protein concentration: 100 nM; construct: GST-full length
# How it was run: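 Bound GST-tagged yeast transcription factors, applied at about 100-200 nM to double-stranded universal all-10-mer Agilent arrays, were detected with fluorescent anti-GST. Scans were normalised with masliner. A modified Wilcoxon-Mann-Whitney statistic, the E-score, was assigned to each ungapped eight-base word pooled with its reverse complement by the Universal PBM Analysis Suite.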
row,Sequence,PBM E-score
1,ACGCGCGG,0.0983
2,CTCATAGA,0.0152
3,ACAAAGTG,0.119
4,TATACTGA,0.274
5,TGATTCAA,0.0483
6,CACATGGA,-0.136
7,ATGAATAC,0.142
8,TCGCCCAA,-0.172
9,CAACCGGG,-0.265
10,TGTGATAA,0.194
11,AAGTGCAA,0.0974
12,TCCTAAGA,-0.0986
13,ATATGATG,0.158
14,GTTGTAAA,-0.0984
15,AGGGCAGC,-0.156
16,AAACATGG,0.0681
17,ATGCACAA,0.141
18,ACCAGCGC,-0.0758
19,GCTTGATA,0.0834
20,GAATAAAA,0.0288
21,AGTCACCC,0.0121
22,CGTCGGTA,-0.223
23,ATATCGGG,0.0675
24,TCAAATGA,-0.0692
25,AATGAAGT,0.249

row,Sequence,PBM E-score
1,AACGGGAA,0.081
2,GCATACAA,0.215
3,GCATCCCC,-0.195
4,ACGTGTAG,-0.127
5,ACCACGTG,-0.0212
6,GGACTCTA,-0.0904
7,ACGGCGAG,-0.0102
8,ACTCTAAA,0.126
9,CTGAAGTC,-0.0994
10,CATAATCG,0.324
11,ATTAAGTC,0.16
12,AAGAGGTG,0.12
13,CTACCGCA,-0.122
14,AGGTATTA,0.209
15,ACTACTAG,0.158
16,AGCGCGCT,0.0943
17,GCTTGCCA,-0.131
18,TCGGCGAA,-0.0521
19,AGGTGAGG,-0.0461
20,CCCGGCAA,-0.0879
21,GCCCTGCC,-0.0826
22,AGAAGTCC,-0.278
23,CTGAACGC,-0.113
24,CAATACGC,0.0195
25,CCGGCCGG,0.111

# A run of entries from the list above:
row,Sequence,PBM E-score
20,CCCGGCAA,-0.0879
21,GCCCTGCC,-0.0826
22,AGAAGTCC,-0.278

# (cont.)

row,Sequence,PBM E-score
1,GGTGACAA,0.144
2,GCATCACC,-0.0704
3,TTCCTAAA,-0.157
4,CACGTCAA,-0.236
5,AATTGGTC,0.16
6,AGATCTAT,-0.126
7,ATATCCAT,0.137
8,AGCGTGAC,-0.0875
9,CAGGAACC,-0.184
10,CTCTTCCC,-0.177
11,AGGAGGAA,-0.233
12,ACCCAAGT,0.0713
13,AACGATCG,0.0832
14,AACTAGTC,0.107
15,ATACTGGG,-0.0146
16,AAGCTTGG,-0.128
17,ACGCCATG,-0.108
18,CGCTGGTA,-0.185
19,AACCACCT,0.157
20,GCCAGGCA,-0.111
21,GTATGATA,0.275
22,CACCCTTA,0.00872
23,ACGTCAAA,0.0848
24,AATATTAA,0.304
25,AGCCTAAT,-0.0343

row,Sequence,PBM E-score
1,ATATATGA,0.213
2,AACAACGC,0.042
3,CGGTCCAG,-0.318
4,CTTTCGTA,-0.00286
5,ACGCTAGG,-0.227
6,GACGTACC,-0.0136
7,AGCTCTTG,-0.0812
8,ATTAAAGG,0.121
9,ACGGCGGC,-0.0817
10,AGTGCTGA,0.0175
11,ACGAACCG,-0.00289
12,CCCTTACC,-0.182
13,GAAACTTC,-0.00897
14,ATCCGTCC,0.0049
15,CGGGTACC,-0.131
16,ATTTCCAC,0.188
17,GGAACGTA,0.00228
18,CGCGGAAG,0.0415
19,GCATTGCC,-0.219
20,ACCGGTGC,-0.171
21,AATAGTTC,0.0923
22,AATAACTC,0.238
23,CCGCTAAA,-0.0853
24,CCCAGCCC,-0.156
25,AAGTATCG,-0.0386

# Fetched one by one from the list above (7):
row,Sequence,PBM E-score
3,CGGTCCAG,-0.318
15,CGGGTACC,-0.131
13,GAAACTTC,-0.00897
10,AGTGCTGA,0.0175
8,ATTAAAGG,0.121
4,CTTTCGTA,-0.00286
21,AATAGTTC,0.0923

# Carrying on.

row,Sequence,PBM E-score
1,GGATCCAA,0.104
2,TACGCGAA,0.0591
3,CATGATGA,0.173
4,AGGCTAGG,-0.221
5,AAGGCGGT,-0.0593
6,CGATCATC,-0.00224
7,TTGCACAA,0.0773
8,AGCATGTG,0.042
9,CAACAGGC,-0.129
10,AATCCAGT,0.199
11,CCTTAGGA,0.0118
12,TATTTCAA,0.193
13,AGGTCTTG,-0.202
14,AAGGGGGA,-0.396
15,ATTGTATA,0.222
16,TGGCAACA,0.0384
17,CGGAGGAA,-0.277
18,AAAGTTGC,0.0362
19,TACCGTCA,-0.0436
20,TAGCTCAA,-0.135
21,TGAGCGCA,-0.0761
22,CGCCCAGA,-0.17
23,AGGGCCCC,-0.322
24,AGGGGTCC,-0.268
25,ACCGTTTG,-0.119

row,Sequence,PBM E-score
1,CCTGGCGA,-0.137
2,GCGAGCGC,-0.237
3,GCACTCAC,-0.0797
4,GGCTTAAA,-0.00936
5,CATTGGGC,-0.262
6,ATCCTTCA,0.0404
7,GACTTCAC,-0.00382
8,CGTCCACC,-0.212
9,AAAACAAT,0.207
10,CTCTCAAA,0.0568
11,ATAACAGC,0.0831
12,CCACGTTC,-0.134
13,AAGCTGGT,0.00012
14,TGAAGCCA,-0.168
15,ATTGCTTG,0.177
16,GGTAAGGA,-0.153
17,AGACTCCA,-0.152
18,AAGTACCA,0.136
19,TATAGGCA,-0.0979
20,TAGTTGAA,0.186
21,GTCCAAGA,-0.308
22,TCACGCCA,0.0043
23,AATAATAA,0.305
24,GCGTTTTA,-0.0549
25,CACGATAC,-0.121

row,Sequence,PBM E-score
1,AATTAAAT,0.184
2,CCATTTCC,0.136
3,CAGCCGAG,-0.0838
4,GTTCGACA,0.0859
5,AGCTTTGG,-0.177
6,AAACAGAT,0.0983
7,ACGTAATG,0.334
8,CTGTCTCA,0.0285
9,CCGGCTCC,-0.233
10,AGGGCCAC,-0.194
11,AGTGCGGA,0.223
12,CAATATCC,0.116
13,ATCCCTGA,-0.0356
14,AGGGTCCC,-0.346
15,CCGAAAAG,0.0796
16,GCGAAGCC,-0.247
17,CTGTTTCA,0.0212
18,ATGGGAGA,-0.0587
19,TAAACTTA,0.0539
20,AGGCGCGG,-0.192
21,GGAGAACC,-0.168
22,GTGCCAAC,-0.0934
